Our source for the binding values is publication doi:10.1101/2021.12.14.472597.

The target of this assay is AtSK31, GFP-tagged (Arabidopsis thaliana). Description: co-IP.

These are yes or no findings as the source states them, for the method shown. In cells and extracts the contact can be indirect. Binding calls can cover weak binding; strength is not graded here. Sequences can lack the tags named with a protein.

B1: HOPW1-1-…2 (WIN2, AT4G31750), HA-tagged (protein, UniProt Q8RXV3 1-311)
chain: MGYLNSVLSSSSQVHSDDGPVSGGGLSQNGKFSYGYASSPGKRSSMEDFYETRIDGVEGEIVGLFGVFDGHGGARAAEYVKQNLFSNLIRHPKFISDTTAAIADAYNQTDSEFLKSENSQNRDAGSTASTAILVGDRLLVANVGDSRAVICRGGNAIAVSRDHKPDQSDERQRIEDAGGFVMWAGTWRVGGVLAVSRAFGDRLLKQYVVADPEIQEEKVDSSLEFLILASDGLWDVVSNEEAVGMIKAIEDPEEGAKRLMMEAYQRGSADNITCVVVRFFSDQAGGIGSSSTNIPIDHGIVPDRISGDSST
In the case of B1, the binding entry was “binds”.
